# Source: patent US11179438B1, “Chicken cathelicidins as a cancer therapy” (King Abdulaziz University, priority 2021, dated 2021)
# Values joined by “and” are separate entries in the source; they are usually repeats but may differ in a detail not shown here. Equal entries are not always repeated. For at least one compound, name, drawing or mass did not settle the structure.
# Columns and labels:
# [1] = tested on: human colon cancer cell line (HCT116); assay: Cell viability assay (CCK-8), HCT116; type: cell-based; conditions: 72 h
# Method: (§1) The breast (MCF-7) and colon cancer (HCT116) cell lines were purchased from the American Type Culture Collection (Manassas, Va., USA) and maintained at 37° C. in a 1:1 mixture of Dulbecco's modified Eagle's medium DMEM high glucose (4.5 g/L) supplemented with 10% FBS in Corning®T75 flasks containing 1.2 g/l sodium bicarbonate (Sigma-Aldrich, St. Louis, Mo., USA), 2.5 mM L-glutamine (Invitrogen Life Technologies), 15 mM HEPES, and 0.5 mM sodium pyruvate supplemented with 400 ng/ml hydrocortisone (Sigma-Aldrich) and 10% fetal bovine serum (PAA Laboratories, Pasching, Austria) in a humidity incubator with 5% CO2 and 95% air. The culture medium was refreshed every 2-3 days for a period of 5-7 days to allow for recovery from cryopreservation and for confluency to be reached. For cell subculturing, the cells were digested with 0.25% trypsin and 0.03% EDTA solution (Invitrogen Life Technologies). Upon reaching 90% confluency, cell numbers were counted. The density of cells was 5 λ103 cells/cm^2. […]
# (§2) To assess the altered cell viability, Cell Counting Kit-8 (CCK-8) assay (Dojindo Laboratories, Kumamoto, Japan) was performed. […] The optical density value was measured by using BioTek microplate reader (Dynatech Laboratories Inc., Chantilly, Va., USA) at 450 nm. […] Data were calculated from three independent experiments, each performed in triplicate (Li et al., 2014).
# mouse granzyme B = assay: Granzyme B expression in blood (qPCR); type: in vivo, BALB/c mice; conditions: mice groups
# [2] = tested on: breast (MCF-7) and colon cancer (HCT116) cell lines; type: cell-based, human
# Method: as §1, §2
# Bcl2 = assay: Immunohistochemistry of Bcl2 in Ehrlich solid tumor; type: in vivo, BALB/c mice; conditions: for BCL-2 immuno-staining area percentage: mean±S.E.
# TNFα = TNFα by flow cytometry in blood of EAC-bearing mice; type: in vivo, BALB/c mice; conditions: mean±SD
# Ehrlich solid tumor = assay: Histological analysis and scoring of Ehrlich solid tumor (H&E); type: in vivo, BALB/c mice; conditions: for necrosis area percentage: mean±S.E.; for score of giant cells / score of mitotic figures / score of the necrosis area: score 0 absent to 3 strong
# [3] = tested on: Ehrlich ascites cells (EAC); assay: Tumor volume / tumor size in EAC-bearing mice (caliper, ultrasound); type: in vivo, BALB/c mice; conditions: for tumor size (ultrasound, mean): unit printed in b123 only; for decrease in tumor size at the third week (ultrasound, individual mice): three mice
# INF-γ = INF-γ by flow cytometry in blood of EAC-bearing mice; type: in vivo, BALB/c mice; conditions: mean±SD
# [4] = tested on: breast cancer cells (MCF-7); assay: Cell viability assay (CCK-8), MCF-7; type: cell-based, human; conditions: 72 h
# Method: as §1, §2
# mouse granzyme K = assay: Granzyme K expression in blood (qPCR); type: in vivo, BALB/c mice
# [5] = moderate concentration (20 μg/ml)
structure (smiles),measurement,setting,value
CC[C@H](C)[C@H](NC(=O)[C@H](CCCCN)NC(=O)[C@H](CCC(=O)O)NC(=O)[C@H](CCCCN)NC(=O)[C@H](CO)NC(=O)[C@H](CCCCN)NC(=O)[C@H](CCCNC(=N)N)NC(=O)[C@H](Cc1ccccc1)NC(=O)[C@H](Cc1ccccc1)NC(=O)[C@H](CC(=O)O)NC(=O)CNC(=O)[C@H](CC(C)C)NC(=O)[C@@H](N)CC(C)C)C(=O)NCC(=O)N[C@@H](CCCCN)C(=O)N[C@@H](CCC(=O)O)C(=O)N[C@@H](Cc1ccccc1)C(=O)N[C@@H](CCCCN)C(=O)N[C@@H](CCCNC(=N)N)C(=O)N[C@H](C(=O)N[C@H](C(=O)N[C@@H](CCC(N)=O)C(=O)N[C@@H](CCCNC(=N)N)C(=O)N[C@H](C(=O)N[C@@H](CCCCN)C(=O)N[C@@H](CC(=O)O)C(=O)N[C@@H](Cc1ccccc1)C(=O)N[C@@H](CC(C)C)C(=O)N[C@@H](CCCNC(=N)N)C(=O)N[C@@H](CC(N)=O)C(=O)N[C@@H](CC(C)C)C(=O)N[C@H](C(=O)N1CCC[C@H]1C(=O)N[C@@H](CCCNC(=N)N)C(=O)N[C@H](C(=O)N[C@@H](CCC(=O)O)C(=O)N[C@@H](CO)C(=O)O)[C@@H](C)O)C(C)C)[C@@H](C)CC)C(C)C)[C@@H](C)CC [Cathelicidin-1],development rate,[1]; low concentration,43%
same,development rate,[1]; [5],23.8%
same,expression of granzyme B,mouse granzyme B,did not affect expression
same,decline in the cell growth,"[2]; 48 h, 40 μg/ml, both cell lines",about 7%
same,growth,"[2]; 72 h incubation, high concentration for cathelicidin-2 and -3, breast and colon cancer cell lines",did not show any growth
same,BCL-2 immuno-staining area percentage,Bcl2; 10 μg/ml,45.40±1.12%
same,BCL-2 immuno-staining area percentage,Bcl2; 20 μg/ml,32.60±1.12%
same,reaction for Bcl2 expression in tumor section,Bcl2; 40 μg/ml,few positive cytoplasmic brownish reactions
same,BCL-2 immuno-staining area percentage,Bcl2; 40 μg/ml,11.40±0.87%
same,reaction for Bcl2 expression in tumor section,Bcl2; 10 & 20 μg/ml,mild to moderate positive reactions
same,level of TNFα (population percent),TNFα; 10 μg/ml,0.1±0%
same,level of TNFα (population percent),TNFα; 20 μg/ml,0.3±0.05%
same,level of TNFα (population percent),TNFα; 40 μg/ml,0.4±0.1%
same,histopathology of Ehrlich solid tumor,Ehrlich solid tumor; 10 μg/ml,mild wide zones of necrosis
same,necrosis area percentage,Ehrlich solid tumor; 10 μg/ml,33.20±1.31%
same,score of giant cells,Ehrlich solid tumor; 10 μg/ml,2.60±0.24
same,score of mitotic figures,Ehrlich solid tumor; 10 μg/ml,2.60±0.24
same,score of the necrosis area,Ehrlich solid tumor; 10 μg/ml,0.60±0.24
same,histopathology of Ehrlich solid tumor,Ehrlich solid tumor; 20 μg/ml,moderate focal area of necrosis
same,necrosis area percentage,Ehrlich solid tumor; 20 μg/ml,44.80±1.31%
same,score of giant cells,Ehrlich solid tumor; 20 μg/ml,1.40±0.40
same,score of mitotic figures,Ehrlich solid tumor; 20 μg/ml,1.60±0.24
same,score of the necrosis area,Ehrlich solid tumor; 20 μg/ml,1.80±0.20
same,histopathology of Ehrlich solid tumor,Ehrlich solid tumor; 40 μg/ml,increasing necrosis degrees
same,necrosis area percentage,Ehrlich solid tumor; 40 μg/ml,59.00±2.91%
same,score of giant cells,Ehrlich solid tumor; 40 μg/ml,0.40±0.24
same,score of mitotic figures,Ehrlich solid tumor; 40 μg/ml,0.60±0.24
same,"tumor size (ultrasound, mean)","[3]; 10 μg/ml, second week",502.77±47.02 mm^3
same,"tumor size (ultrasound, mean)","[3]; 10 μg/ml, third week",340±30.97 mm^3
same,"decrease in tumor size at the third week (ultrasound, individual mice)","[3]; 10 μg/ml, listed as CATH-1",147.12 mm^3 and 144.53 mm^3 and 194.51 mm^3
same,"tumor size (ultrasound, mean)","[3]; 20 μg/ml, second week",342.42±51.33 mm^3
same,"tumor size (ultrasound, mean)","[3]; 20 μg/ml, third week",255.08±79.68 mm^3
same,"decrease in tumor size at the third week (ultrasound, individual mice)",[3]; 20 μg/ml,158.78 mm^3 and 72.89 mm^3 and 230.15 mm^3
same,"tumor size (ultrasound, mean)","[3]; 40 μg/ml, second week",107.55±16.43 mm^3
same,"tumor size (ultrasound, mean)","[3]; 40 μg/ml, third week",55.61±12.79 mm^3
same,"decrease in tumor size at the third week (ultrasound, individual mice)","[3]; 40 μg/ml, listed as CATH-1",53.92 mm^3 and 43.92 mm^3 and 57.98 mm^3
same,tumor volume measured by calliper vs carcinoma control,"[3]; 10, 20 & 40 μg/ml, through 21 days, p<0.0001",significantly smaller
same,level of INF-γ (population percent),INF-γ; 10 μg/ml,0.1±0%
same,level of INF-γ (population percent),INF-γ; 20 μg/ml,0.67±0.11%
same,level of INF-γ (population percent),INF-γ; 40 μg/ml,0.73±0.18%
same,development rate,[4]; low concentration,48%
same,development rate,[4]; [5],22%
same,granzyme K expression as compared to carcinoma control,mouse granzyme K; 10 μg/ml,0.293±0.1 fold
same,granzyme K expression as compared to normal mice,mouse granzyme K; 10 μg/ml,0.36±0.1 fold
same,granzyme K expression in comparison to carcinoma mice,mouse granzyme K; 40 μg/ml,47.6±15 fold
same,granzyme K expression in comparison to normal mice,mouse granzyme K; 40 μg/ml,39.3±12.4 fold
